Results as given in PMC2680623.

Sequences of proteins named here, by UniProt entry; tags and fusion partners are left off. A change or cut given only in a name is not applied to a line headed by its entry.
UniProt Q3URU2: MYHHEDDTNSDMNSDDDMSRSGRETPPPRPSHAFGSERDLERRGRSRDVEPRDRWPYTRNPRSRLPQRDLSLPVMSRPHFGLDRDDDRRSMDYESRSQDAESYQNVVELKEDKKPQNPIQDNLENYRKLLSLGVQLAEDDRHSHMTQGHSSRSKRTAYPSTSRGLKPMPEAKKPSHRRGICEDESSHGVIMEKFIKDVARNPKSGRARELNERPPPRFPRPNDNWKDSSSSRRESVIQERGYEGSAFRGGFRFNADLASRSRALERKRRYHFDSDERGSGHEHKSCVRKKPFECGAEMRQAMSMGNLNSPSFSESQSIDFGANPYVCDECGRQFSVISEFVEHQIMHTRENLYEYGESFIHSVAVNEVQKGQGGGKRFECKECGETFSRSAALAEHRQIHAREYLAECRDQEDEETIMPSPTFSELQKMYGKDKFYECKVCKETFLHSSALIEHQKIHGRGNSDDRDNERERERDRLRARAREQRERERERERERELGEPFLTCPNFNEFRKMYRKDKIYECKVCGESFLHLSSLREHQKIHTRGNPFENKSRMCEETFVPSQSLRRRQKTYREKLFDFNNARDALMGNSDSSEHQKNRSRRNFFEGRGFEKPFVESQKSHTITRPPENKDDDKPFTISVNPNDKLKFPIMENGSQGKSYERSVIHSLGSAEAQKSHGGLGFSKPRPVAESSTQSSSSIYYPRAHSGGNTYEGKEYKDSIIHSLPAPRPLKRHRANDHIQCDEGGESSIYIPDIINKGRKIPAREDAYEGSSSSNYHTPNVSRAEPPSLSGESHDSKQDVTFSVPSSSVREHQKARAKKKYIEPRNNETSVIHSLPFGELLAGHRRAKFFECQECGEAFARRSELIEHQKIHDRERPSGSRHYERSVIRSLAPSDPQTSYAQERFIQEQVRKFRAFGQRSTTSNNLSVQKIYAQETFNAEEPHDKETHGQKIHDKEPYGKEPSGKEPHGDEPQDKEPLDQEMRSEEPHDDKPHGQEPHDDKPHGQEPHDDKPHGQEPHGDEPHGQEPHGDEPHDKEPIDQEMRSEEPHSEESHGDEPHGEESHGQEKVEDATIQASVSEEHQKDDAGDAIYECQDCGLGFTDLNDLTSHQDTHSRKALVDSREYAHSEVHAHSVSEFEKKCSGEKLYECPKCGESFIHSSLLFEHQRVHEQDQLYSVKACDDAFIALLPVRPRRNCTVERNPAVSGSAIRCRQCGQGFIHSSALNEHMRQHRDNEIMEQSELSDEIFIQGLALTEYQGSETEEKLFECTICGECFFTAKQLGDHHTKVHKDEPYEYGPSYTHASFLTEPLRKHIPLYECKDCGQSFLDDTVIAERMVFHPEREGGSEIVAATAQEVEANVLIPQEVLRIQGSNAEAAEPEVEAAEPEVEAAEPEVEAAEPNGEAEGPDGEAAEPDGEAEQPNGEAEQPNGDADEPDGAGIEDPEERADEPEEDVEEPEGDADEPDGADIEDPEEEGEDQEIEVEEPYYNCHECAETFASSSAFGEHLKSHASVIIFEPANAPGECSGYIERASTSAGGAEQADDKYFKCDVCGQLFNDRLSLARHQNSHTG
UniProt P21796: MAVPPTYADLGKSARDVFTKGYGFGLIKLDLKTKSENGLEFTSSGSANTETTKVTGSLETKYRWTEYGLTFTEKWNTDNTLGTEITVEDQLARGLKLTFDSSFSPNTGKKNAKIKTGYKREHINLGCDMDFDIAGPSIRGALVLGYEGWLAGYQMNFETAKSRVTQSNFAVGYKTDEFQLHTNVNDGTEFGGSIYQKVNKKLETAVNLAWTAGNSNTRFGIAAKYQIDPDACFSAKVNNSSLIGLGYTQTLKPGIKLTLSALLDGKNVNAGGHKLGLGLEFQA
UniProt Q60932: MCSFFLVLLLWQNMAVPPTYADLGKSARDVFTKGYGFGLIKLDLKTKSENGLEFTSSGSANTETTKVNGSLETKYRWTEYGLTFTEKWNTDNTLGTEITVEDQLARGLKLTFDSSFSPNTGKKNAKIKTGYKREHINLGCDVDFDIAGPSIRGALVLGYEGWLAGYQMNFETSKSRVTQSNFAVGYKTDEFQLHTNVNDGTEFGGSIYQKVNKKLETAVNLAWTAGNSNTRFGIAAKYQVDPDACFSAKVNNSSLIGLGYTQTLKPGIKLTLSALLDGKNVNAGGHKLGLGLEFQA

Key:
[1] = biological target: Murine PW1, forced expression in HEK293 cells (mass spectrometry screen) (mouse) (UniProt Q3URU2); experiment: affinity purification with mass spectrometry; PW1 immunoprecipitated from C2C12 cells (endogenous) or HEK293 cells (forced expression of murine PW1); two-dimensional electrophoresis, spots picked and analysed by LC-MS/MS; F3 cells, which do not express PW1, as negative control
[2] = biological target: PW1 (endogenous, C2C12 myogenic cells) (mouse (endogenous in C2C12)) (UniProt Q3URU2); experiment: as above

| Substance | binding [1] | binding [2] |
| --- | --- | --- |
| VDAC-1 (endogenous, HEK293 cells) (from UniProt P21796 1-283) | binds | – |
| VDAC-1 (endogenous, C2C12 cells) (from UniProt Q60932) | – | binds |

These are yes or no findings as the source states them, for the method shown. In cells and extracts the contact can be indirect. These calls come from enrichment with a bait or labelling near it, and not all partners need be listed.
